Percent effect of library compounds

Chains of the proteins cited; added tags and fusions are not shown. Residues count along the entry.
UniProt P9WNZ1, whole entry: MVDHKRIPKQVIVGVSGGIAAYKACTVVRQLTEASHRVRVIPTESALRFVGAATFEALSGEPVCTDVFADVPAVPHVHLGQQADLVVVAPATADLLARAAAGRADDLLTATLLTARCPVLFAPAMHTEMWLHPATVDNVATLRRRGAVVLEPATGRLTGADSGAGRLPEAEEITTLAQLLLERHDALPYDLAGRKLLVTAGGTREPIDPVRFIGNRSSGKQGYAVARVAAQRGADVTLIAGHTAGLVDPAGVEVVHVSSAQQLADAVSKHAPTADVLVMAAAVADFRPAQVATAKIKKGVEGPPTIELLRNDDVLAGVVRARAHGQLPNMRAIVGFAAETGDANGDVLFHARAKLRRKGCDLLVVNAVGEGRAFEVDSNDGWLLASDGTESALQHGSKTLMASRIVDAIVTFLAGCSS
UniProt P9WFT3, whole entry: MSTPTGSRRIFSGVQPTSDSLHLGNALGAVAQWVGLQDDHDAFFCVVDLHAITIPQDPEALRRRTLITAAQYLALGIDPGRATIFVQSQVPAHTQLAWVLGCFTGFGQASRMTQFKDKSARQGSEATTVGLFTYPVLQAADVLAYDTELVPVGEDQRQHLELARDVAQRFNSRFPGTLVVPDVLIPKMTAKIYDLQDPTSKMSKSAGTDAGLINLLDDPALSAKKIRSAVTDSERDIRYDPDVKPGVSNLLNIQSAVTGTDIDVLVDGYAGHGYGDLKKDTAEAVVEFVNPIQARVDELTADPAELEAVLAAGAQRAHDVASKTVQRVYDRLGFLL
UniProt A4I591, 1-473: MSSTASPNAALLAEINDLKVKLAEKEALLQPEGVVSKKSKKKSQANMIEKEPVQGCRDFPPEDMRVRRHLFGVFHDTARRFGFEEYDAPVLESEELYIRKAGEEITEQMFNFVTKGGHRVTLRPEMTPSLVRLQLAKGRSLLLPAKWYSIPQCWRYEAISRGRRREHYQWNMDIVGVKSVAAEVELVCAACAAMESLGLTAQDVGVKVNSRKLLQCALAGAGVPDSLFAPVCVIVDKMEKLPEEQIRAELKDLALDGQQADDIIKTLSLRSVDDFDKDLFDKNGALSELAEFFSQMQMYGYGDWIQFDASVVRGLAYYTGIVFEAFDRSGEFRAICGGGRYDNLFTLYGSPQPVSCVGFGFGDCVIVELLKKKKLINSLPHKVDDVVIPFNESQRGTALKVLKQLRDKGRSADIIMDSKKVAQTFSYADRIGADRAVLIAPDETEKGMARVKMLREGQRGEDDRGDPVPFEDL

CoaBC: 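Enzyme assay of CoaBC with a phosphate dye (Biomol Green) read at 650 nm. Target: Coenzyme A biosynthesis protein CoaBC, Mycobacterium tuberculosis (UniProt P9WNZ1). Tested at 30 µM. Direction is inferred from only a few compounds that gave an IC50; most scored high, so higher reads as stronger inhibition. Most strong results did not repeat in a second test. Of about 67,000 compounds tested this way, about 40 (0.06%) reached 50% or more in at least one test.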
Toxoplasma: 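Assay of Toxoplasma gondii numbers, read through their beta-galactosidase reporter with a colour substrate. Compounds at 10 µM. The record gives no direction; the compounds picked for IC50 retests had high values, so higher reads as fewer parasites. Size under these conditions: about 67,000 compounds, about 260 of them at 50% or above in at least one test.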
Leishmania in macrophages: 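Cell assay of Leishmania donovani living inside macrophages; the read-out is not stated. Tested at 30 µM. Direction is inferred from retests: higher values go with stronger inhibition. Of about 69,000 compounds tested this way, about 1,000 (1.5%) reached 50% or more in at least one test.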
MtTrpRS: 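Enzyme assay of tryptophanyl-tRNA synthetase; the read-out is not stated. Target: Tryptophan-tRNA ligase, Mycobacterium tuberculosis (UniProt P9WFT3). Tested at 10 µM. Direction is not recorded; retested compounds ran higher, which suggests that high means inhibition. Size under these conditions: about 65,000 compounds, about 64 of them at 50% or above in at least one test.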
LiHisRS: 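Enzyme assay of histidyl-tRNA synthetase; the read-out is not stated. Target: Histidine-tRNA ligase, Leishmania infantum (UniProt A4I591). Concentration: 30 µM. The record gives no direction; compounds that gave an IC50 in retests scored well above the rest, so higher reads as stronger inhibition. The assay is labelled LdHisRS but filed under L. infantum. Size under these conditions: about 69,000 compounds, about 410 of them at 50% or above in at least one test.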

The filed quantity is “Percent Effect” (%). The record does not define 0% and 100%; most values in the screen are far below 50% and negative numbers occur (in some assays of this library far below -100). Compounds were drawn at random from those tested, without regard to their results.

With CCOc1ccc2cc(C(=O)NCCNc3ccc(C)nn3)[nH]c2c1 the screen gave CoaBC: -0.1167%; Toxoplasma: 10.98%; Leishmania in macrophages: 23.87%; MtTrpRS: 1.924%; LiHisRS: 10%.
With CNC[C@H]1CC[C@H](c2cc(CN(C)C(=O)c3cnccn3)n(C)n2)CC1.Cl the screen gave Toxoplasma: 17.76%; Leishmania in macrophages: 5.693%.
With CN1N=C(C(=O)N2CCN(c3ncccc3Cl)CC2)CCC1=O the screen gave CoaBC: 8.182%; Toxoplasma: 4.503%; Leishmania in macrophages: -15.49%; MtTrpRS: -0.7435%; LiHisRS: 19.18%.
With O=C(C(c1ccccc1)S(=O)(=O)c1ccccc1)N1CCCCC1 (configuration not stated) the screen gave CoaBC: 1.042%; Toxoplasma: -5.434%; Leishmania in macrophages: -26.77%; MtTrpRS: 2.994%; LiHisRS: 19.1%.
With CN(Cc1ccco1)Cc1ccccc1CNC(=O)c1ccc[nH]1 the screen gave CoaBC: 10.02%; Toxoplasma: -0.577%; Leishmania in macrophages: 19.06%; MtTrpRS: 2.709%; LiHisRS: 25%.
With OCC1CCCN1c1cc(NCc2ccc(Cl)s2)ncn1 (configuration not stated) the screen gave CoaBC: 11.23%; Toxoplasma: -34.59%; Leishmania in macrophages: 19.52%; MtTrpRS: -0.6823%; LiHisRS: 32.43%.
With COc1cccc(CN2CCC(CO)(Cc3ccc(Cl)cc3)CC2)c1O the screen gave CoaBC: 5.607%; Toxoplasma: 15.31%; Leishmania in macrophages: -16.51%; MtTrpRS: -3.483%; LiHisRS: 17.11%.
With COc1ccc(CNC(=O)C(NC(=O)Cc2ccccc2)C(C)C)cn1 (configuration not stated) the screen gave CoaBC: 2.184%; Toxoplasma: -3.917%; Leishmania in macrophages: 17.86%; MtTrpRS: 0.8639%; LiHisRS: 9.524%.
With CSc1ccc(NC(=O)Nc2ccc3c(c2)N(S(C)(=O)=O)CC3)cc1 the screen gave CoaBC: -1.901%; Toxoplasma: -2.106%; Leishmania in macrophages: 41.44%; MtTrpRS: 1.213%; LiHisRS: -2.913%.
With Cn1ncc2c(N3CCC(CC(=O)N4CCCC4)CC3)ncnc21 the screen gave CoaBC: -7.243%; Toxoplasma: 9.61%; Leishmania in macrophages: 33.15%; MtTrpRS: -2.168%; LiHisRS: 11.5%.
With CS(=O)(=O)Cc1noc(CN2CCN(c3ccccc3Cl)CC2)n1 the screen gave CoaBC: 0.128%; Toxoplasma: -2.672%; Leishmania in macrophages: 15.19%; MtTrpRS: -1.799%; LiHisRS: 12.35%.
With [H][C@]12CC[C@]([H])(CN(Cc3[nH]cnc3C)C1)N(Cc1cc(C)no1)C2 the screen gave Toxoplasma: -9.087%; Leishmania in macrophages: 23.77%.
With CC(Cn1cccn1)NC(=O)Nc1cccnc1 (configuration not stated) the screen gave CoaBC: 1.381%; Toxoplasma: 3.36%; Leishmania in macrophages: 21.62%; MtTrpRS: -3.786%; LiHisRS: 18.18%.
With CCc1cnc(CN(C(C)=O)C2CCN(CCc3ccccn3)C2)o1 (configuration not stated) the screen gave CoaBC: 2.171%; Toxoplasma: 32.11%; Leishmania in macrophages: 6.139%; MtTrpRS: 4.035%; LiHisRS: 9.821%.
With CN1CCC2(CC1)CN(Cc1ccc(C3CCCCO3)o1)CCCN2C (configuration not stated) the screen gave CoaBC: -25.21%; Toxoplasma: -9.512%; Leishmania in macrophages: 47.13%; MtTrpRS: -6.454%; LiHisRS: 9.333%.
With O=C(Nc1ccccc1)c1ccc2c(c1)C1(CCCCC1)CN2.O=C(O)C(F)(F)F the screen gave Toxoplasma: 12.51%; Leishmania in macrophages: 42.19%.
With O=C(CNC(=O)c1ccccc1Cl)Nc1nccs1 the screen gave CoaBC: -1.297%; Toxoplasma: 0.413%; Leishmania in macrophages: -2.653%; MtTrpRS: 4.499%; LiHisRS: 20.63%.
With CCOCC(O)CN1CCN(C(=O)C2CCCC2)CC1 (configuration not stated) the screen gave CoaBC: -1.979%; Toxoplasma: 18.62%; Leishmania in macrophages: 16.45%; MtTrpRS: -4.944%; LiHisRS: 4.386%.
With CC(C)Oc1ccc(C(=O)N2CCCSCC2CN(C)C)cc1 (configuration not stated) the screen gave CoaBC: -4.875%; Toxoplasma: -7.383%; Leishmania in macrophages: -5.201%; MtTrpRS: 18.83%; LiHisRS: 10.96%.
With O=C(C1CCOC1)N1CCN(Cc2ccc3c(c2)CCO3)CC1 (configuration not stated) the screen gave CoaBC: 2.216%; Toxoplasma: 6.684%; Leishmania in macrophages: -6.2%; MtTrpRS: -2.887%; LiHisRS: 18.42%.
With Cn1cc(CN2CCO[C@H]3CN(Cc4ccsc4)C[C@H]32)cn1 the screen gave CoaBC: 7.477%; MtTrpRS: -5.353%; LiHisRS: 19.74%.
With COC1(CNC(=O)c2ccc(Cl)c(Cl)c2)CCSC1 (configuration not stated) the screen gave CoaBC: 3.944%; Toxoplasma: 13.01%; Leishmania in macrophages: 13.63%; MtTrpRS: 2.673%; LiHisRS: 4.878%.
With CC(C)CC(=O)N1CC[C@@H]2CN(Cc3cccnc3)S(=O)(=O)[C@@H]2CC1 the screen gave CoaBC: 2.469%; LiHisRS: 4.545%.
With Cc1ccc(NC2CCN(C(=O)COc3ccccc3)CC2)nn1 the screen gave CoaBC: -5.59%; Toxoplasma: 3.584%; Leishmania in macrophages: 22.59%; MtTrpRS: -0.8045%; LiHisRS: 15.79%.
With CCc1cccc(NC(=O)NC2CCc3nc(C)nn3C2)c1 (configuration not stated) the screen gave CoaBC: -1.22%; Toxoplasma: -2.704%; Leishmania in macrophages: -13.86%; MtTrpRS: -0.1698%; LiHisRS: 16.67%.
With NC(=O)CN1CC2(CCC1=O)CCN(Cc1ccc(F)cc1Cl)CC2 the screen gave CoaBC: 1.285%; Toxoplasma: 5.902%; Leishmania in macrophages: 13.27%; MtTrpRS: -4.446%; LiHisRS: 8.333%.

Once more, the final 2:

compound,CoaBC,Toxoplasma,Leishmania in macrophages,MtTrpRS,LiHisRS
CCc1cccc(NC(=O)NC2CCc3nc(C)nn3C2)c1 (configuration not stated),-1.22%,-2.704%,-13.86%,-0.1698%,16.67%
NC(=O)CN1CC2(CCC1=O)CCN(Cc1ccc(F)cc1Cl)CC2,1.285%,5.902%,13.27%,-4.446%,8.333%

Source: ChEMBL document CHEMBL3988442, “University of Dundee, Small-Polar-MMV Screening Library” (2021).